# From article PMC12670160, “A drug-repurposing screen of FDA- and EMA-approved drugs identifies two NF-κB inhibitors active against eumycetoma” (Journal of Antimicrobial Chemotherapy, 2025)
# Where a name gives a salt, the structure may show the parent alone. Among all 5,300 compounds or so, about 130 (2.5%) showed an effect of 50% or more. The list shows a part of the results. Bridge positions count the residues as written; N and C are the ends. Square brackets hold non-standard residues; d marks the D form. Peptide text beside a SMILES is read from it. * marks the point of attachment. ξ: configuration not given here. Heptanoyl(6-Me) = CC(C)CCCCC(=O)*; ξDab = NCCC(N)C(=O)O; ξT = CC(O)C(N)C(=O)O
# Tested on: M. mycetomatis strain mm55
# Details: primary screen, metabolic activity vs growth control; 96 h, 2 µM; inhibitor
row,SMILES,% viability
1,"FC(F)(F)C(F)(F)C(F)(F)C(F)(F)C(F)(F)C(F)(F)C(F)(F)C(F)(F)Br [ONC0003656, 1bromoperfluorooctane]",62.54%
2,"O=c1oc(-c2ccc(C(F)(F)F)cc2)nn1Cc1cc(Cl)ccc1O [ONC0003641, bms191011]",95.63%
3,"CC(C)CCCCC(=O)NC(CCN)C(=O)NC(C(=O)NC(CCN)C(=O)NC1CCNC(=O)C(C(C)O)NC(=O)C(CCN)NC(=O)C(CCN)NC(=O)[C@H](CC(C)C)NC(=O)[C@@H](CC(C)C)NC(=O)C(CCN)NC1=O)C(C)O (stereo partly drawn) [ONC0001976, colistin sulfate] ({Heptanoyl(6-Me)}-[ξDab][ξT][ξDab][ξDab][ξDab][dL]L[ξDab][ξDab][ξT]; lactam 4-C)",104.9%
4,"COc1ccc(C(=O)N2CCCc3cc(C4=NNC(=O)SC4C)ccc32)cc1OC (stereo not drawn) [ONC0003273, emd53998]",63.82%
5,"CCCC(=O)Nc1ncnc2c1ncn2[C@@H]1O[C@@H]2COP(=O)(O)O[C@H]2[C@H]1OC(=O)CCC [ONC0003102, bucladesine sodium]",84.05%
6,"CN(C)CCC[C@@]1(c2ccc(F)cc2)OCc2cc(C#N)ccc21 [ONC0004016, escitalopram oxalate]",68.38%
7,"CC1=CC(=O)NS(=O)(=O)O1 [ONC0005569, acesulfame potassium]",46%
8,"CC(C)c1ccc(C(=O)NC(=N)N)cc1S(C)(=O)=O [ONC0004136, cariporide]",93.97%
9,"O=C(O[C@H]1CN2CCC1CC2)N1CCc2ccccc2[C@@H]1c1ccccc1 [ONC0005500, solifenacin succinate]",90.93%
10,"NC(=O)N/N=C/c1ccc([N+](=O)[O-])o1 [ONC0000465, nitrofurazone]",62.24%
11,"COc1ccc(-n2c(C)c([N+](=O)[O-])c3ccc(O)cc32)cc1 [ONC0005157, id8]",120.6%
12,"O=S(=O)(c1ccccc1)c1cnc2c(N3CCNCC3)cccc2c1 [ONC0004551, sb742457]",64.91%
13,"Cc1c(C(=O)NC2CCCCC2)sc2nc3ccc(N)cc3n12 [ONC0003595, ym298198desmethyl]",135.5%
14,"CC(C)C[C@H](NC(=O)[C@H](CCc1ccccc1)NC(=O)CN1CCOCC1)C(=O)N[C@@H](Cc1ccccc1)C(=O)N[C@@H](CC(C)C)C(=O)[C@@]1(C)CO1 [ONC0004468, carfilzomib pr171]",121.2%
15,"CCc1cncnc1N1CCN(Cc2nc3cc(C(F)(F)F)ccc3[nH]2)CC1 [ONC0001462, pf4708671]",84.24%
16,"CN1CCCCC1CCN1c2ccccc2Sc2ccc([S+](C)[O-])cc21 (stereo not drawn) [ONC0004505, mesoridazine besylate]",56.6%
17,"CCN(CC)CCOc1ccc(/C(=C(\Cl)c2ccccc2)c2ccccc2)cc1 [ONC0000352, clomiphene citrate]",95.76%
18,"CCOc1cc(C(C)(C)C)ccc1C1=NC(C)(c2ccc(Cl)cc2)C(C)(c2ccc(Cl)cc2)N1C(=O)N1CCN(CCCS(C)(=O)=O)CC1 (stereo not drawn) [ONC0004446, rg7112 ro5045337]",112.9%
19,"C[N+](C)(CF)CCO [ONC0002638, fluorocholine chloride]",99.75%

row,SMILES,% viability
1,"COc1ccc(S(=O)(=O)N2c3ccc(Cl)cc3[C@](O)(c3ccccc3Cl)[C@@H]2C(=O)N2CCC[C@H]2C(N)=O)cc1OC [ONC0003085, relcovaptan]",84.65%
2,"O=C(O)C[C@H]1CC[C@H](c2ccc(NC(=O)c3nnc(Nc4ccc(F)c(F)c4)o3)cc2)CC1 [ONC0004431, azd3988]",109%
3,"CO[C@@H]1[C@@H](OC(N)=O)[C@@H](O)[C@H](Oc2ccc3c(O)c(NC(=O)c4ccc(O)c(CC=C(C)C)c4)c(=O)oc3c2C)OC1(C)C [ONC0000515, novobiocin sodium]",68.02%
4,"O=C1c2ccccc2-n2c1nc1ccccc1c2=O [ONC0003517, tryptanthrin]",43.27%
5,"COc1cccc(OC)c1-c1cc(C(=O)NC2(C(=O)O)C3CC4CC(C3)CC2C4)nn1-c1ccnc2cc(Cl)ccc12 (stereo not drawn) [ONC0005555, meclinertant]",87.75%
6,"Cc1ccc2c(-c3ccccc3)nc(=O)n(C(C)C)c2c1 [ONC0004100, proquazone]",145.3%
7,"C[N+]1([O-])[C@@H]2C[C@@H](OC(=O)[C@H](CO)c3ccccc3)C[C@H]1[C@@H]1O[C@@H]12 (stereo partly drawn) [ONC0002370, scopolaminenoxide]",76.11%
8,"CN(NC(=O)CC(=O)NN(C)C(=S)c1ccccc1)C(=S)c1ccccc1 [ONC0004916, elesclomol sta4783]",92.53%
9,"CC(C)[C@H](N)C(=O)OCCOCn1cnc2c(=O)[nH]c(N)nc21 [ONC0004144, valacyclovir hydrochloride]",101.2%
10,"CN(C)C(=N)N=C(N)N [ONC0004003, metformin hydrochloride]",75.81%
11,"CC[C@H](NC(C)C)[C@H](O)c1ccc(O)c2[nH]c(=O)ccc12 (racemic) [ONC0000846, procaterol]",72.96%
12,"CCN1CCN(C(=O)N[C@@H](C(=O)N[C@@H]2C(=O)N3[C@@H]2SC(C)(C)[C@@H]3C(=O)O)c2ccccc2)C(=O)C1=O [ONC0000492, piperacillin sodium]",73.47%
13,"NCCc1ccccn1 [ONC0003041, 2pyridylethylamine]",110.5%
14,"Cc1c(F)cc(C(=O)NC2CC2)cc1-c1c(F)cn2c(C(C)(C)C)nnc2c1F [ONC0000105, al8697]",73.87%
15,"O=[N+]([O-])c1ccccc1S(=O)(=O)NC[C@H]1CC[C@H](CNCC2CCc3ccccc3C2)CC1 (stereo partly drawn) [ONC0000121, ntncb]",80.22%
16,"Cc1cc(C(=O)Nc2cc(Oc3ccc4nc(NC(=O)C5CC5)cn4n3)ccc2C)n(C)n1 [ONC0000850, tak593]",90.33%
17,"CCC(CC)Nc1cc(C)nc(Oc2c(C)cc(C)cc2C)c1C [ONC0001981, cp376395]",91.75%
18,"Oc1cc(Cl)ccc1Oc1ccc(Cl)cc1Cl [ONC0004211, triclosan]",105.1%
19,"CN(C)CCc1c[nH]c2ccc(Cn3cncn3)cc12 [ONC0004846, rizatriptan benzoate maxalt]",110.8%

row,SMILES,% viability
1,"CC(C)(C)NCc1cc(Nc2ccnc3cc(Cl)ccc23)c2c(c1O)CCCC2 [ONC0002209, naphthoquine phosphate]",128.7%
2,"OCCN1CCN(CCCN2c3ccccc3Sc3ccc(Cl)cc32)CC1 [ONC0002396, perphenazine]",90.87%
3,"C=CC1=C(C)c2cc3[nH]c(cc4nc(cc5[nH]c(cc1n2)c(C)c5CCC(=O)O)C(CCC(=O)OC)=C4C)[C@@]1(C)C3=CC=C(C(=O)OC)[C@H]1C(=O)OC [ONC0001491, verteporfin]",55.47%
4,"OC[C@H]1O[C@@H](Oc2ccc(O)cc2)[C@H](O)[C@@H](O)[C@@H]1O [ONC0005232, arbutin uva parbutin]",106.2%
5,"O=C(c1ccc(C(=O)N2CCC(N3CCCC3)CC2)c(Nc2ccccc2)c1)N1CCC(N2CCCC2)CC1 [ONC0004329, unc1215]",110.8%
6,"N#CCC1(n2cc(-c3ncnc4[nH]ccc34)cn2)CN(C2CCN(C(=O)c3ccnc(C(F)(F)F)c3F)CC2)C1 [ONC0002059, itacitinib]",75.61%
7,"Nc1ccc(S(=O)(=O)c2ccc(N)cc2)cc1 [ONC0000297, dapsone]",73.16%
8,"O=Nc1ccc(O)c2ncccc12 [ONC0003663, nsc3852]",78.63%
9,"Nc1ccc(C(=O)NCC(=O)O)cc1 [ONC0002867, aminohippuric acid]",94.65%
10,"COc1ccc(NS(=O)(=O)c2ccc(N)cc2)nn1 [ONC0000622, sulfamethoxypyridazine]",113.3%
11,"COc1ncc2cc(C(=O)Nc3cc(C(=O)NCc4cccc(Cl)c4)ccc3Cl)c(=O)[nH]c2n1 [ONC0003104, tcs7004]",76.63%
12,"CCCC(=O)O[C@]1(C(=O)COC(C)=O)CC[C@H]2[C@@H]3C[C@H](F)C4=CC(=O)C=C[C@]4(C)[C@@]3(F)[C@@H](O)C[C@@]21C [ONC0004400, difluprednate]",133.8%
13,"Fc1ccc(-c2nc3n(c2-c2ccncc2)CCS3)cc1 [ONC0000111, skf86002]",90.99%
14,"CCC[C@H](N[C@@H](C)C(=O)N1[C@H](C(=O)O)C[C@@H]2CCCC[C@@H]21)C(=O)OCC [ONC0004265, perindopril erbumine]",73.43%
15,"Cn1nnnc1SCC1=C(C(=O)O)N2C(=O)[C@@H](NC(=O)[C@H](O)c3ccccc3)[C@H]2SC1 [ONC0005600, cefamandole]",70.73%
16,"Cn1ncc(Cl)c1-c1cc(C(=O)N[C@H](CN)Cc2ccc(F)c(F)c2)oc1Cl [ONC0001786, uprosertib]",116.1%
17,"CCCCNNC(=O)c1ccc(Br)cc1 [ONC0003096, uf010]",92.32%
18,"N#Cc1c(N)nc(SCc2csc(-c3ccc(Cl)cc3)n2)c(C#N)c1-c1ccc(OCCO)cc1 [ONC0002037, capadenoson]",95.6%
19,"CC1(C)OC(=O)NC1=O [ONC0000704, dimethadione]",116.2%
